Experimental data published in article PMC3899330.
Results are given in words; binding and its absence hold for the method and conditions named. Some results given as binding are weak or reduced against the parent protein; the word gives no strength.

Target: T1, ROL5, Arabidopsis thiouridylase (Arabidopsis thaliana) (UniProt O64862)
T1 sequence: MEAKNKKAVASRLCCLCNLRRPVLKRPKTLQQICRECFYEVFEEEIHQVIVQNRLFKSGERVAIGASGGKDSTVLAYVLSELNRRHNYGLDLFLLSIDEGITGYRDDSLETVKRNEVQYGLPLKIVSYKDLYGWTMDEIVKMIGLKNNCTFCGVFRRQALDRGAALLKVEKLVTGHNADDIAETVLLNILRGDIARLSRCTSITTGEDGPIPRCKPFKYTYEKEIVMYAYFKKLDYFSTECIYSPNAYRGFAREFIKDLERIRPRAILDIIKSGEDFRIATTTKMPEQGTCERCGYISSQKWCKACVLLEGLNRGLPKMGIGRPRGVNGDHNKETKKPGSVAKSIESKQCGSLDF
Test: two-hybrid; ROL5 as bait (pLEXA-N), URM11 or URM12 as prey (pGAD-HA); growth on selective medium and reporter staining (beta-galactosidase in the legend, GUS in the text); performed three times independently; empty-vector controls showed no autoactivation

B1: URM11, ubiquitin-related modifier of Arabidopsis thaliana (protein, UniProt A0MDQ1 1-101)
chain: MQLTLEFGGGLELLCDSEKIHKVNVDLPNGADSDDFTMKHLLSWVRTNLIKERPEMFMKGDTVRPGVLVLVNDCDWELSGQLDTVIEDKDVVVFISTLHGG
binding: binds

B2: URM12, ubiquitin-related modifier of Arabidopsis thaliana (protein, UniProt B3H7G2 1-99)
chain: MQFTLEFGGGLELLCDSVKIHKVNINLLNDSDILTMKDLLSWVRTNLIKERPEMFMKGDTVRPGVLVLVNDCDWELSGQLDTTLEDKDVIVFISTLHGG
binding: binds
